{"source": "patent US12286455B2", "about": "“Anthelmintic depsipeptide compounds” (BOEHRINGER INGELHEIM ANIMAL HEALTH USA INC., priority 2015, dated 2025)", "test_system": "Microfilaria of Dirofilaria immitis", "assay": "Method B: survival of microfilaria of Dirofilaria immitis in microtitre plate", "conditions": "survival of microfilaria at 72 hours; read-out: median EC50", "note": "pEC50: −log10 of the molar value. Some results were stated once for a whole list of compounds, not compound by compound. For at least one compound, name, drawing or mass did not settle the structure."}
{"smiles": "CC(C)C[C@H]1C(=O)O[C@H](Cc2ccccc2)C(=O)N(C)[C@@H](CC(C)C)C(=O)O[C@H](C)C(=O)N(C)[C@@H](CC(C)C)C(=O)O[C@H](Cc2ccccc2)C(=O)N(C)[C@@H](CC(C)C)C(=O)O[C@H](C)C(=O)N1C", "note": "[PF1022A, reference compound]", "values": [{"measurement": "pEC50", "value": "> 7.00"}]}
